This is an account of results in paper PMC11327461, “Exogenous serpin B1 restricts immune complex-mediated NET formation via inhibition of a chymotrypsin-like protease and enhances microbial phagocytosis” (The Journal of Biological Chemistry, 2024).

By UniProt entry, the sequences of proteins in these tests, tags left out. Residues count along the entry.
UniProt P08246, residues 30-267: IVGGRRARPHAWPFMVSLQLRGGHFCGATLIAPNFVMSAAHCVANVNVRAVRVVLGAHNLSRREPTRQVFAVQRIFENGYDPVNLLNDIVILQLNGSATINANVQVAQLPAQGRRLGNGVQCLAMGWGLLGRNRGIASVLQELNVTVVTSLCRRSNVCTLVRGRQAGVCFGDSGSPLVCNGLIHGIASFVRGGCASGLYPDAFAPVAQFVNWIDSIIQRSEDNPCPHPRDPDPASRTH

No constants are given. Whether binding was seen depends on the method and setting. Some binding calls cover weakened binding; strength is not graded here.

This experiment concerns the target neutrophil elastase (human) (UniProt P08246). Kind of experiment: formation of SDS- and heat-stable serpin-protease complexes, SDS-PAGE; 2 uL of hNE, hPR3 or hCG (23.4 uM each) mixed with each sB1 protein at 1:1 molar ratio in 20 uL PBS, pH 7.4, 15 min; stopped with protease inhibitor mix; reducing sample buffer, heated, SDS-PAGE; both purified.

B1: recombinant human serpin B1, wild type (C344) (protein, UniProt P30740 1-379)
chain: MEQLSSANTRFALDLFLALSENNPAGNIFISPFSISSAMAMVFLGTRGNTAAQLSKTFHFNTVEEVHSRFQSLNADINKRGASYILKLANRLYGEKTYNFLPEFLVSTQKTYGADLASVDFQHASEDARKTINQWVKGQTEGKIPELLASGMVDNMTKLVLVNAIYFKGNWKDKFMKEATTNAPFRLNKKDRKTVKMMYQKKKFAYGYIEDLKCRVLELPYQGEELSMVILLPDDIEDESTGLKKIEEQLTLEKLHEWTKPENLDFIEVNVSLPRFKLEESYTLNSDLARLGVQDLFNSSKADLSGMSGARDIFISKIVHKSFVEVNEEGTEAAAATAGIATFCMLMPEENFTADHPFLFFIRHNSSGSILFLGRFSSP
Turning to B1, the binding result is “binds”.
